# Measured values from PubChem BioAssay AID504444 (National Center for Advancing Translational Sciences (NCATS), 2011).
# Hit rate of the full screen: of about 360,000 compounds, about 7,500 (2.1%) were called active. This list was built around the results that the source calls inconclusive (neither active nor inactive); the mix of calls is not that of the screen. Calls follow the shape of the dose curve; as a rule, active = well fitted inhibition curve with a large enough effect; inconclusive = small, poorly fitted or top-dose-only effect, or effect the other way; inactive = flat fitted curve, though single readings scatter. Potencies of inconclusive entries are doubtful fits and often do not repeat.
# Assay: Nrf2 qHTS screen for inhibitors; also: nearly all actives have a fitted effect of over 60% in size
# Details: A549 ARE-Fluc reporter, luciferase luminescence, 18-24 h; series mostly up to 46 µM
# Method in brief: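 Nrf2 function is reported as luminescence of an ARE-controlled luciferase in A549 cells. Compounds were tested at several concentrations, and a CellTiter-Fluor read on the same wells flagged cytotoxicity.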
# Potency is read from the fitted curve at half-maximal effect.
row,Compound,Potency
1,CC1(C)CC[C@]2(C(=O)O)CC[C@]3(C)C(=CCC4[C@@]5(C)CC[C@H](O)C(C)(C)C5[C@H](O)C[C@]43C)[C@@H]2C1 (stereo partly specified),"inconclusive: 23.1 µM [falling, single point]"
2,Cc1ccc(C)c(NC(=O)C(Cc2ccccc2)n2cccc2)c1 (stereo unspecified),inactive
3,Cc1noc(C)c1COc1cccc(C(=O)N2CCc3ccccc32)c1,"inconclusive: 29.1 µM [falling, single point]"
4,O=C(COc1ccc(Br)cc1)NCCCNC(=O)c1cccnc1,"inconclusive: 6.51 µM [falling, single point]"
5,Cc1cccc(-n2c(O)c(C=NCc3ccccn3)c3ccccc3c2=O)c1,"inconclusive: 11.6 µM [falling, partial curve, poor fit]"
6,COc1ccc(OC)c(NC(=O)Cn2c(=O)n(Cc3ccco3)c(=O)c3cc(OC)c(OC)cc32)c1,"inconclusive: 29.1 µM [falling, single point]"
7,CCCOC(=O)c1ccc(Oc2c(-c3ccc(OC)cc3O)n[nH]c2C)cc1,"inconclusive: 32.6 µM [falling, single point]"
8,N#Cc1c(/N=C/N2CCOCC2)sc2c1CCCCC2,"inconclusive: 4.61 µM [activator, full curve]"
9,CCN(CC)S(=O)(=O)c1ccc2[nH]cc(C(=O)NCCCN3CCCCC3)c(=O)c2c1,inactive
10,COc1ccc(-c2nnc(SCCOc3cccc(C)c3)n2N)cc1,"inconclusive: 16.4 µM [falling, partial curve, poor fit]"
11,O=C(c1ccc(Cl)cc1)c1oc2ccccc2c1CS(=O)c1ccc(Cl)cc1 (stereo unspecified),"inconclusive: 29.1 µM [falling, single point]"
12,CC(C)[C@H](NS(=O)(=O)c1ccccc1F)C(=O)OCC(=O)Nc1cccc(S(N)(=O)=O)c1,"inconclusive: 32.6 µM [activator, partial curve, poor fit]"
13,O=c1cnc2ccccc2n1Cc1ccc(Br)cc1,inactive
14,CCOc1ccccc1CNC(=O)CCC(=O)N1CCSc2ccccc21,inactive
15,COc1ccc(-c2cc(=Nc3ccc(C)cc3)c3ccccc3o2)cc1,"inconclusive: 2.31 µM [falling, partial curve, poor fit]"
16,CCOC(=O)c1sc(N2C(=O)C(O)=C(C(=O)c3ccc(C)o3)C2c2cccc([N+](=O)[O-])c2)nc1C (stereo unspecified),active: 23.1 µM
17,O=C(c1cc(-c2ccccc2O)on1)N1CCCC1,"inconclusive: 18.4 µM [activator, partial curve]"
18,O=C(O)C1C=Cc2ccccc2N1C(=O)c1ccccc1 (stereo unspecified) (tested in a mixture with another compound),inactive
19,CCN(CC)C(=O)CSc1ncnc2sc(-c3ccccc3)cc12,"inconclusive: 16.4 µM [falling, single point]"
20,COCCn1c(=O)[nH]c2cc(C(=O)N3CCN(c4cccc(Cl)c4)CC3)ccc2c1=O,"inconclusive: 23.1 µM [falling, single point]"
21,O=[N+]([O-])c1cc(-c2nc(-c3ccccc3)no2)ccc1NCc1cccnc1,"inconclusive: 29.1 µM [falling, single point]"
22,Cc1ccc(S(=O)(=O)N2CCCC2C(=O)Nc2nc3ccccc3s2)cc1 (stereo unspecified),"inconclusive: 2.31 µM [activator, single point]"

row,Compound,Potency
1,O=C(O)c1ccc(Nc2nc(-c3ccccc3)cs2)cc1,"inconclusive: 0.184 µM [activator, full curve, poor fit]"
2,COc1ccc(Cc2nnc(SCc3nc4ccccc4c(=O)[nH]3)o2)cc1,"inconclusive: 18.4 µM [falling, partial curve, poor fit]"
3,CC1CC(=O)C(C2c3ccccc3CCN2C(=O)CCl)C(=O)C1 (stereo unspecified),"inconclusive: 29.1 µM [activator, partial curve, poor fit]"
4,COCCN(Cc1ccccc1)C(=O)c1cccc(S(=O)(=O)N2CCN(c3ccccc3)CC2)c1,"inconclusive: 14.6 µM [falling, partial curve, poor fit]"
5,CCCCNc1oc(-c2ccc(COc3ccccc3C)o2)nc1C#N,"inconclusive: 20.6 µM [falling, single point]"
6,CCCCCOc1ccc(C(=O)CCC(=O)NNC(=O)c2ccncc2)cc1,inactive
7,Cc1ccc(NC(=O)C2CCC(CNS(=O)(=O)c3ccc4c(c3)CCCC(=O)N4)CC2)cc1F (stereo unspecified),"inconclusive: 25.9 µM [falling, partial curve, poor fit]"
8,COc1ccc(C(CC(=O)c2ccc(O)cc2)S(=O)(=O)c2ccc(C)cc2)cc1 (stereo unspecified),inactive
9,CCC(=O)Nc1ccc(NC(=O)c2cc3ccccc3o2)c(OC)c1,"inconclusive: 2.31 µM [activator, full curve]"
10,c1ccc2nc(-c3ccc4c(c3)OCO4)ccc2c1,"inconclusive: 7.31 µM [activator, partial curve]"
11,O=C(N/N=C/c1cc(Br)cc([N+](=O)[O-])c1O)c1ccc(NC(=O)c2ccc(F)cc2)cc1,"inconclusive: 29.1 µM [falling, single point]"
12,CC(C)(C)NC(=O)C[C@H]1C[C@H](C(=O)N2CCCCC2)[C@@]2(C)c3[nH]c4ccc(Cl)cc4c3CCN2C1=O,active: 16.4 µM
13,Cc1ccc(NC(=O)c2ccc(Cl)nc2)cc1,"inconclusive: 3.66 µM [activator, full curve]"
14,CCOc1ccc(S(=O)(=O)N2CCCCC2)c2ccccc12,"inconclusive: 16.4 µM [falling, partial curve, poor fit]"
15,COc1ccc2c(c1)c1c(c(=O)n(Cc3ccccc3)c(=O)n1Cc1ccccc1Cl)n2C,"inconclusive: 29.1 µM [activator, single point]"
16,O=C(CC1C(=O)NCCN1Cc1cccc(Oc2ccccc2)c1)NCCc1cscn1 (stereo unspecified),"inconclusive: 29.1 µM [falling, partial curve, poor fit]"
17,Brc1ccc2ncnc(Nc3ccc(N4CCOCC4)cc3)c2c1,active: 11.6 µM
18,COc1ccc(-n2c(CNc3ccc(C)cc3)nnc2SCC(=O)Nc2nc(-c3ccccc3)cs2)cc1,"inconclusive: 23.1 µM [falling, single point]"
19,Oc1ccc(-c2csc(-c3cccnc3)n2)cc1O,inactive
20,CCOC(=O)c1c(NC(=O)c2ccc(Cl)cc2)csc1C,inactive
21,O=C1c2ccccc2C2(c3cc(C(F)(F)F)cc(C(F)(F)F)c3)NCCN12 (stereo unspecified),"inconclusive: 23.1 µM [falling, partial curve, poor fit]"
22,COc1ccc(CN(C)C(=O)c2cccc(Oc3ccccc3)c2)c(OC)c1OC,"inconclusive: 29.1 µM [falling, single point]"

# Three neighbouring records from above:
row,Compound,Potency
19,Oc1ccc(-c2csc(-c3cccnc3)n2)cc1O,inactive
20,CCOC(=O)c1c(NC(=O)c2ccc(Cl)cc2)csc1C,inactive
21,O=C1c2ccccc2C2(c3cc(C(F)(F)F)cc(C(F)(F)F)c3)NCCN12 (stereo unspecified),"inconclusive: 23.1 µM [falling, partial curve, poor fit]"

# (cont.)

row,Compound,Potency
1,O=C1/C(=C/Nc2ccc3c(c2)OCO3)CCc2ccccc21,"inconclusive: 1.03 µM [activator, partial curve]"
2,CC(NC(=O)Cc1ccc(NS(=O)(=O)c2cccc(C(F)(F)F)c2)cc1)c1ccccn1 (stereo unspecified),inactive
3,O=C(Nc1cc(C(F)(F)F)ccc1Cl)c1ccncc1,"inconclusive: 20.6 µM [falling, single point]"
4,O=C(COC(=O)c1ccccc1Br)NCCC1=CCCCC1,inactive
5,O=C(Nc1ccc2oc(-c3ccc(Cl)c(Cl)c3)nc2c1)c1ncn[nH]1,"inconclusive: 0.259 µM [activator, partial curve, poor fit]"
6,O=C(CSc1ccc2ccccc2c1)Nc1ccncc1,active: 7.31 µM
7,O=C(Nc1cc(Cl)cc(Cl)c1)C1CCC(=O)N1Cc1ccccc1Cl (stereo unspecified),"inconclusive: 29.1 µM [falling, partial curve, poor fit]"
8,COc1cc(/C=C(\C#N)C(=O)NCc2cccs2)ccc1O,"inconclusive: 3.26 µM [activator, partial curve, poor fit]"
9,S=C(NCC1CCCCC1)Nc1ccc(Oc2ccccc2)cc1,"inconclusive: 29.1 µM [falling, single point]"
10,CCN(CC)S(=O)(=O)c1ccc(S(=O)(=O)Nc2ccc3c(c2)oc2ccccc23)cc1,"inconclusive: 18.4 µM [falling, single point]"
11,Cc1ncc(CO)c2c1Oc1nc(-c3ccccc3)nc(SCC(=O)Nc3cccc(O)c3)c1C2,active: 1.84 µM
12,O=C(CNC(=O)c1ccc(N2CCCC2=O)cc1)Nc1ccc(F)c(F)c1F,inactive
13,COc1ccc(-c2cc(C(=O)N3CC4(C)CC3CC(C)(C)C4)no2)cc1OC (stereo unspecified),"inconclusive: 14.6 µM [falling, partial curve]"
14,Cc1ccccc1CNC(=O)CCCn1nc(C)c2sc3ccccc3c2c1=O,"inconclusive: 18.4 µM [activator, partial curve]"
15,CCn1c(NC(=O)c2ccc(C)cc2)c2ccccc2nc1=O,"inconclusive: 29.1 µM [falling, single point]"
16,COc1ccccc1/C(C)=N/NC(=S)NCc1ccccc1,inactive
17,CC(C)(C)C(=O)Nc1sc(-c2ccccc2)cc1C(=O)O,"inconclusive: 29.1 µM [activator, single point]"
18,Cc1cc(-c2ccccc2)n2ncc(-c3ccccc3)c2n1,"inconclusive: 0.92 µM [activator, full curve]"
19,Cc1c(C(N)=O)sc2nc(-c3ccccc3)cn12,"inconclusive: 16.4 µM [activator, partial curve, poor fit]"
20,C/C(CCc1ccc2c(c1)OCO2)=N\NC(=S)NC(C)C,inactive
21,O=C(COc1ccc2c3c(c(=O)oc2c1)CCCC3)N1CCN(c2ccccc2)CC1,"inconclusive: 6.51 µM [falling, single point]"
22,COc1cccc(NC(CNS(=O)(=O)c2ccc(C)cc2)c2ccccc2)c1 (stereo unspecified),"inconclusive: 29.1 µM [falling, single point]"
